These results are taken from PMC12343779.

The chains behind the UniProt entries cited, without tags or fusion partners. Residues count along the entry.
UniProt Q63722, residues 34-1219: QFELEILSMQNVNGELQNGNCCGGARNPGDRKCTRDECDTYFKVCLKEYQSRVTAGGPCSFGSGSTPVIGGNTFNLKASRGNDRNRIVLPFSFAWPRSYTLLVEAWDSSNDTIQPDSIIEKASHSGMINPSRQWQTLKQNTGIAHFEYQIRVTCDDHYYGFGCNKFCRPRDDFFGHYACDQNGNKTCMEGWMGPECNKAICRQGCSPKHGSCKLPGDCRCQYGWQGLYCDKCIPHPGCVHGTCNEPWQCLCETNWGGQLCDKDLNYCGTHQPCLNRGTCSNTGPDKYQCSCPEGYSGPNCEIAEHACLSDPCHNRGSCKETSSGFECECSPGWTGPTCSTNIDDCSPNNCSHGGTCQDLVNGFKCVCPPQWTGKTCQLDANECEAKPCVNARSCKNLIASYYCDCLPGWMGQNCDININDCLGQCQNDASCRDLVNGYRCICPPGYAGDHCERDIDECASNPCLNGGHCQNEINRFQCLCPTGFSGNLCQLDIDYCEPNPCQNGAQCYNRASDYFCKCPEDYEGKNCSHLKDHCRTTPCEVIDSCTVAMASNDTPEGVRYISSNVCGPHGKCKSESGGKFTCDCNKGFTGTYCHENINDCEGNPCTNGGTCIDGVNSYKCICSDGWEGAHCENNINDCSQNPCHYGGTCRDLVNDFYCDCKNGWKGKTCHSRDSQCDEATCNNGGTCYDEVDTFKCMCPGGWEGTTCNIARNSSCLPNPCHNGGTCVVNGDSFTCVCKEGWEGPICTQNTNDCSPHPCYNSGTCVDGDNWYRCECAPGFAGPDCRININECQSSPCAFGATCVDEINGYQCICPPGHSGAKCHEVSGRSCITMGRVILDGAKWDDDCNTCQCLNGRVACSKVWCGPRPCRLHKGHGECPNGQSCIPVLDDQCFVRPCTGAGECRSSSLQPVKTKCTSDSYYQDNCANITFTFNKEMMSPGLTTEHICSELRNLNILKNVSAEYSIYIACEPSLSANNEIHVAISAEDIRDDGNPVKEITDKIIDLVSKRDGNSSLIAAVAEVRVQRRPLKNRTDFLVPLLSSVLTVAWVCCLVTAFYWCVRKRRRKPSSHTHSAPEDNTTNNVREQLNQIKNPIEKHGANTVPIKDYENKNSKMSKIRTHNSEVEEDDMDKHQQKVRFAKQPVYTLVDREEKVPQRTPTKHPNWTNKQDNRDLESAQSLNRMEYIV
UniProt G3V7W1: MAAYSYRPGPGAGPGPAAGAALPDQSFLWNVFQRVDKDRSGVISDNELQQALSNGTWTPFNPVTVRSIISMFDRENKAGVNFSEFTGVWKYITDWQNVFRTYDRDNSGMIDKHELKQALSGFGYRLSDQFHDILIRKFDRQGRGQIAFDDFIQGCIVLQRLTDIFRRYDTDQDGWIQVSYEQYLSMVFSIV

No constants are given. Whether binding was seen depends on the method and setting. Binding seen in cells or lysates may run through a third protein. Some entries that bind do so weakly or less than the wild type.

Common to all, as to test: co-IP; endogenous proteins in rat liver tissue lysate; 1 ug antibody or IgG on protein A+G magnetic beads, overnight at 4 °C; washed with lysis buffer; eluate read by Western blot
In test [1] the target is JAG1 (rat (endogenous in rat liver tissue)) (UniProt Q63722).
Test [2] deals with T1, Alix (rat (endogenous in rat liver tissue)) (UniProt Q9QZA2).
T1 sequence: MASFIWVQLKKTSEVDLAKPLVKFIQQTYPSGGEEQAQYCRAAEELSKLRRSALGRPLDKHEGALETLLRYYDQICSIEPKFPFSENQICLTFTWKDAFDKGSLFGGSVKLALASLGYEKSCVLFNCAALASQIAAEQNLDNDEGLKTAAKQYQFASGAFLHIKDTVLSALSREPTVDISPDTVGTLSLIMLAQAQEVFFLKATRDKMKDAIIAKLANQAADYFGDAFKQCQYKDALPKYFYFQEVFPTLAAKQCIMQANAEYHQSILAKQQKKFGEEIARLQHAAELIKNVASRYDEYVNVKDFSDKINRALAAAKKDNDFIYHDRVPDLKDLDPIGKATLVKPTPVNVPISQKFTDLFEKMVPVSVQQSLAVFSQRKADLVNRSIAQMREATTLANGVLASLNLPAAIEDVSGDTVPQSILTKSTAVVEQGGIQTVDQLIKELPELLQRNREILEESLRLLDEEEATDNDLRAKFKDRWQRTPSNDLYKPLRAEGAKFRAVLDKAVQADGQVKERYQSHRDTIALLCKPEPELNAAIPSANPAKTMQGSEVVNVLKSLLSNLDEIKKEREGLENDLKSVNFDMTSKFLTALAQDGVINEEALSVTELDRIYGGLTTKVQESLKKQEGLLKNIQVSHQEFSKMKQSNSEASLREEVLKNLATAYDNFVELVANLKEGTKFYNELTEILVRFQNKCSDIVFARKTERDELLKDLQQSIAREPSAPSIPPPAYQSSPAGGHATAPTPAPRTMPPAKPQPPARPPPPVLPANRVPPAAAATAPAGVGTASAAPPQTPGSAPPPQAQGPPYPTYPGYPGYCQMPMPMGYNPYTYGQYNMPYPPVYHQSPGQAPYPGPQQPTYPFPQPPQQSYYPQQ

Test [3] concerns the target ALG-2 (rat (endogenous in rat liver tissue)) (UniProt G3V7W1).

ALG-2 (from UniProt G3V7W1 1-191): the binding result in test [1] and in test [2] was “binds” in each case.

B1: SEC31A (protein, UniProt Q9Z2Q1 1-1249)
chain: MKLKEIDRTAMQAWSPAQNHPIYLATGTSAQQLDATFSTNASLEIFELDLSDPSLDMKSCATFSSSHRYHKLIWGPHKMDSKGDVSGVLIAGGENGNIILYDPSKIIAGDKEVVIAQKDKHTGPVRALDVNIFQTNLVASGANESEIYIWDLNNFATPMTPGAKTQPPEDISCIAWNRQVQHILASASPSGRATVWDLRKNEPIIKVSDHSNRMHCSGLAWHPDVATQMVLASEDDRLPVVQMWDLRFASSPLRVLENHARGILAIAWSMADPELLLSCGKDAKILCSNPNTGEVLYELPTNTQWCFDIQWCPRNPAVLSAASFDGRIRVYSIMGGSIDGLRQKQVDKLSSSFGNLDPFGTGQPLPPLQIPQQTSQHSIVLPLKKPPKWIRRPVGASFSFGGKLVTFENVTGQPQQGAEQPRRQPVFISQVVTEKDFLSRSEQLQHVVQSQGFISYCQKKIDASQTDFEKNVWSFLKVNFEEDSRGKYLELLGYRREDLGEKIALALNRVDGSDVALKDSDRVAQSDGEESPAEEGQLLGERIKEEKQECDFLPSAGGGTFNISVSGDIDGLITRALLTGNFESAVDLCLHDNRMADAIILAIAGGQELLAQTQKKYFAKSQSKITRLITAVVMKNWKEIVESCDLKNWREALAAVLTYAKPDEFSALCDLLGARLESEGDSLLRTQACLCYICAGNVERLVACWTKAQDGSNPLSLQDLIEKVVILRKAVQLTQALDTNTVGALLAEKMSQYANLLAAQGSIAAALAFLPDNTNQPDIVQLRDRLCRAQGRSVPGQESSRSSYEGQPLPKGGPGPLAGHPQVSRVQSQQYYPQVRIAPTVTTWSDRTPTALPSHPPAACPSDTQGGNPPPPGFIMHGNVVPNSPAPLPTSPGHMHSQPPPYPQPQPYQPAQQYSLGTGGSAVYRPQQPVAPPASKRYPNAPYVSPVASYSGQPHMYTAQPASSPTSSSAPLPPPPSSGASFQHGGPGAPPSSSAYALPPGTTGTPPAASELPASQRTGPQNGWNDPPALNRVPKKKKLPENFMPPVPITSPIMNPGGDPQPQGLQQQPSASGPRSSHASFPQPHLAGGQPFHGIQQPLAQTGMPPSFSKPNTEGAPGAPIGNTIQHVQALPTEKITKKPIPDEHLILKTTFEDLIQRCLSSATDPQTKRKLDDASKRLECLYDKLRDQTLSPTIISGLHSIARSIETRNYSEGLTVHTHIVSTSNFSETSAFMPVLKVVLSQASKLGV
Turning to B1, the binding entry in test [1] and in test [3] was “binds” each time.
